Results: patent US7897582B2, “Oligonucleotide compositions and methods for the modulation of the expression of B7 protein” (Isis Pharmaceuticals, Inc., priority 2003, dated 2011)
Some of these results come from one statement about several compounds together. e = 2'-O-(2-methoxyethyl) (MOE); d = 2'-deoxy (DNA)

Tested on: Human B7-2 mRNA
Assay: Human B7-2 mRNA expression in electroporated THP-1 cells induced with LPS and dibutyryl cAMP
Assay type: cell-based
Details: 10 micromolar, electroporation, Table 24
Text: The human promonocytic leukaemia cell line, THP-1 (American Type Culture Collection, Manassas, Va.) was maintained in RPMI 1640 growth media supplemented with 10% fetal calf serum (FCS; Life Technologies, Rockville, Md.). A total of 1×10^7 cells were electroporated at an oligonucleotide concentration of 10 micromolar in 2 mm cuvettes, using an Electrocell Manipulator 600 instrument (Biotechnologies and Experimental Research, Inc.) employing 200 V, 1000 μF. Electroporated cells were then transferred to petri dishes and allowed to recover for 16 hrs Cells were then induced with LPS and dibutyryl cAMP (500 μM) for 16 hours. RNA was isolated and processed as described in previous examples.

Question: How did the “inhibition of B7-2 mRNA expression” value turn out when “5′-CGTGTGTCTGTGCTAGTCCC-3′ (sugars from the 5' end e5 d10 e5, all phosphorothioate, methylation of C not given here) [ISIS 113131, human B7-2; phosphorothioate, 2′-MOE at nucleotides 1-5 and 16-20]” was run?
Answer: ≥ 50%
